We go through one molecule from article PMC11906763.

Protein sequences, listed by entry. Tags and fused reporters are not part of them.
UniProt Q92922: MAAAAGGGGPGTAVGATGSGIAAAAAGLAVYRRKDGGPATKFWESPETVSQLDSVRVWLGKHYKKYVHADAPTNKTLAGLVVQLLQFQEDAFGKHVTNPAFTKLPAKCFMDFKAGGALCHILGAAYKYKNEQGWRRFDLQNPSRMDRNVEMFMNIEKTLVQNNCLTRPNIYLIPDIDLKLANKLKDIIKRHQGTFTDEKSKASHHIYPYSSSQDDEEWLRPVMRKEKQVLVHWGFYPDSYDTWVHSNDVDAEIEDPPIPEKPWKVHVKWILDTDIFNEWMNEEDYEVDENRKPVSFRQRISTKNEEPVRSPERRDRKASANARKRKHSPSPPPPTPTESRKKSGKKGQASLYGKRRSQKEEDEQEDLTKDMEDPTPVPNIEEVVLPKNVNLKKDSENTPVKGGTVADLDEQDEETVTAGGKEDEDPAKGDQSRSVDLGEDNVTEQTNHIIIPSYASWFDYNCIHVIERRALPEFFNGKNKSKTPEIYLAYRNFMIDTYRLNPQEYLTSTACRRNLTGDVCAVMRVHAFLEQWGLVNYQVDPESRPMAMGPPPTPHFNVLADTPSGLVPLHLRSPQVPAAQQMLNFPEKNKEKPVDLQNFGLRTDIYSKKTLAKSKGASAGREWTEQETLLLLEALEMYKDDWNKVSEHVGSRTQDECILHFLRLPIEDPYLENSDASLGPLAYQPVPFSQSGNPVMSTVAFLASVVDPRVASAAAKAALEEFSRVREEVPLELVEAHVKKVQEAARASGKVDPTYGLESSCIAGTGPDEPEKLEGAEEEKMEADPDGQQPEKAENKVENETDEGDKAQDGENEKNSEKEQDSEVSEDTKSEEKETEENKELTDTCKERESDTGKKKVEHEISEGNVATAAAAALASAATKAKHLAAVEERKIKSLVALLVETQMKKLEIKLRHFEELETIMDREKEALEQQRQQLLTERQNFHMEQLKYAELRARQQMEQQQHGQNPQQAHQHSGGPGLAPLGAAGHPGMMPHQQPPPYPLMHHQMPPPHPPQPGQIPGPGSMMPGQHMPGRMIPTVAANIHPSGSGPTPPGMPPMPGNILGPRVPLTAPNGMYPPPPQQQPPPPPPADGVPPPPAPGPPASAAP

These are yes or no findings as the source states them, for the method shown. Binding seen in cells or lysates may run through a third protein. Some results given as binding are weak or reduced against the parent protein; the word gives no strength.

The test deals with BAF155 (SMARCC1), a core subunit of SWI/SNF complexes (human (endogenous in Kelly)) (UniProt Q92922). In words: co-IP; IP of endogenous BAF155 (Santa Cruz sc-32763) with Pierce IP Lysis Buffer and Protein A/G magnetic beads; Kelly shARID1A cells with or without doxycycline 72 h (ARID1A knockdown), IFNγ 24 h; Western blot for BAF155, ARID1A and IRF1. In general terms: In western blotting, separated proteins are transferred to a membrane and probed.

B1: interferon response factor 1 (IRF1) (protein, UniProt P10914 1-325)
chain: MPITRMRMRPWLEMQINSNQIPGLIWINKEEMIFQIPWKHAAKHGWDINKDACLFRSWAIHTGRYKAGEKEPDPKTWKANFRCAMNSLPDIEEVKDQSRNKGSSAVRVYRMLPPLTKNQRKERKSKSSRDAKSKAKRKSCGDSSPDTFSDGLSSSTLPDDHSSYTVPGYMQDLEVEQALTPALSPCAVSSTLPDWHIPVEVVPDSTSDLYNFQVSPMPSTSEATTDEDEEGKLPEDIMKLLEQSEWQPTNVDGKGYLLNEPGVQPTSVYGDFSCKEEPEIDSPGGDIGLSLQRVFTDLKNMDATWLDSLLTPVRLPSIQAIPCAP
As to B1, the binding entry was “binds”.
